In PubChem BioAssay AID651768 (National Center for Advancing Translational Sciences (NCATS), 2012):
The whole screen tested about 360,000 compounds, of which about 1,700 (0.47%) were called active. This list was built around the results that the source calls inconclusive (neither active nor inactive); the mix of calls is not that of the screen. The call rests on the fitted dose curve; in most records, active means well fitted inhibition curve with a large enough effect; inconclusive means small, poorly fitted or top-dose-only effect; inactive means no such curve, though single readings can be large or run the other way. A potency beside an inconclusive call is a rough fit, not a confirmed value.

Protein sequences, listed by entry. Tags and fused reporters are not part of them.
UniProt Q14191, whole entry, looked up: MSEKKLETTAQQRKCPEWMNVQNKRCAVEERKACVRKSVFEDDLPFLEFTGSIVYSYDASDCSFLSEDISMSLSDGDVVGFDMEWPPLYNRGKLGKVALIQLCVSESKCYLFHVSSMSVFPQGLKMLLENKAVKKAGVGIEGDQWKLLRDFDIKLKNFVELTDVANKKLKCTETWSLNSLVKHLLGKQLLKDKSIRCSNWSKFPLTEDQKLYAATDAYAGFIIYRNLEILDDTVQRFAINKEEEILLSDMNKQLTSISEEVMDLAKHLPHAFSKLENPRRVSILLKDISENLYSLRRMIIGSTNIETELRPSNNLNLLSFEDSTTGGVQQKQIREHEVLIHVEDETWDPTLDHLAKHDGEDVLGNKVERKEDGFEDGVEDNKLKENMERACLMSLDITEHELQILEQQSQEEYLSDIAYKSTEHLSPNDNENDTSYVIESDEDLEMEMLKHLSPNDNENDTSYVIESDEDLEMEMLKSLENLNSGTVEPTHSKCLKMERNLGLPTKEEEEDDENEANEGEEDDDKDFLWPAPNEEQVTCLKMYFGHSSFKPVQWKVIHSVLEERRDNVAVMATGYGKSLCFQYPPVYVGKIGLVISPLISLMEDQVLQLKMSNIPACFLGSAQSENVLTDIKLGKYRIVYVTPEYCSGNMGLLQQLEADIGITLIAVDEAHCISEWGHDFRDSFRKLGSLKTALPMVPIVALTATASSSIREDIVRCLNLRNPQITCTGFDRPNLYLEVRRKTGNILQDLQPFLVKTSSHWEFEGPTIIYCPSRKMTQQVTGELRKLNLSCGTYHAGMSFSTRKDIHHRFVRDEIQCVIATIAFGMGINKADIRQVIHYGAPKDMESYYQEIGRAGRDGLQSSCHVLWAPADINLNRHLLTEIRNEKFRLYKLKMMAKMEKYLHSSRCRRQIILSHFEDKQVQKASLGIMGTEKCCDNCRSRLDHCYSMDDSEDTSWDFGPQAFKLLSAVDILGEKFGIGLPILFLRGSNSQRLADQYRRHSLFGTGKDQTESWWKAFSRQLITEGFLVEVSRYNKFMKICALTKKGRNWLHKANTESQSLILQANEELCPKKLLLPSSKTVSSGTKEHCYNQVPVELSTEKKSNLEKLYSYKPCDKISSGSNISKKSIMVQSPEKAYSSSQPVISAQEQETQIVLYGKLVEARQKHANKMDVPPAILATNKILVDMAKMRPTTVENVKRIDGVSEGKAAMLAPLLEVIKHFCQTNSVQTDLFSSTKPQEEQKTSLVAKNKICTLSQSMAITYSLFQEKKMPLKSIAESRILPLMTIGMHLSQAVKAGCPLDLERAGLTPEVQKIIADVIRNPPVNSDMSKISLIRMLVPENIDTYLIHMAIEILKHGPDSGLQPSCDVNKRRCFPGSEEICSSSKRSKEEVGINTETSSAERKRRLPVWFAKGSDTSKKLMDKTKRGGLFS

target: Bifunctional 3'-5' exonuclease/ATP-dependent helicase WRN (Homo sapiens) (UniProt Q14191); test: qHTS for Inhibitors of WRN Helicase; settings: WRN helicase unwinding, fluorescent forked duplex, kinetic; activity change, negative = inhibition: at 114 µM (top of the series) unless noted; further: nearly all actives have a fitted effect of over 55% in size
Method in brief: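 Kinetic red-fluorescence monitoring (525/598 nm) tracks WRN helicase activity after 100 nM fluorophore-quencher forked duplex and 2 mM ATP are added to 20 nM enzyme pretreated 15 min at room temperature with compound.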
On the % scale 0 is the no-effect control and ±100 the full control effect; potency means the concentration at half of the fitted maximal effect.

| SMILES | Potency | activity change, negative = inhibition |
| --- | --- | --- |
| O=[N+]([O-])c1nn(-c2cccc(Cl)c2)n(O)c1=NCc1cccnc1 | inconclusive: 25.1 µM [inhibitor, partial curve] | – |
| CCn1c(=O)c(C(=O)CN(C)Cc2cccc(OC)c2OC)c(N)n(Cc2ccccc2)c1=O | inconclusive: 39.8 µM [inhibitor, full curve, poor fit] | – |
| COc1ccccc1NS(=O)(=O)c1cccc(-n2c(O)c(C=Nc3ccccc3C(=O)O)c3ccccc3c2=O)c1 | active: 50.1 µM | – |
| COc1ccc(CCC(=O)Nc2ccc3c(c2)OCO3)cc1 | inconclusive: 10 µM [inhibitor, full curve, poor fit] | – |
| O=C(Nc1cccc(Cl)c1)c1ccc(=O)[nH]n1 | inactive | – |
| Cc1sc2nc3c(SC(C)C(=O)O)cc(C(=O)c4ccccc4O)cn3c(=O)c2c1C (stereo unspecified) | inconclusive: 56.2 µM [inhibitor, partial curve] | – |
| Cc1ccc(C)c(C2=NNC(=NCc3ccccc3)SC2)c1 | inactive | – |
| COc1ccc(-n2c(=S)[nH]c3sc(-c4ccccc4)cc3c2=O)c(OC)c1 | inconclusive: 4.47 µM [inhibitor, full curve, poor fit] | – |
| FC(F)(F)c1ccccc1/C=N/n1c(C2CCCCC2)n[nH]c1=S | inactive | – |
| CC1(C)Cc2c(C#N)c(N)sc(=S)c2CS1 | inconclusive: 35.5 µM [inhibitor, partial curve] | – |
| O=C1NC(=S)/C(=C\c2ccc(-c3ccccc3Cl)o2)S1 | active: 50.1 µM | – |
| Cc1ccsc1C(=O)OCC(=O)c1ccc[nH]1 | inconclusive: 14.1 µM [inhibitor, single point] | – |
| CCCSC1=N/C(=C\c2ccc([N+](=O)[O-])o2)C(=O)S1 | active: 22.4 µM | – |
| O=C(O)CSc1cc(C(=O)c2cc(F)ccc2O)cn2c(=O)c3c(-c4ccccc4)csc3nc12 | inactive | – |
| COC(=O)c1ccc(CCc2cc(O)ccc2O)cc1 | active: 56.2 µM | – |
| O=C(Nc1ccc(NC(=O)c2sc3ccccc3c2Cl)cc1)c1ccco1 | inconclusive: 31.6 µM [inhibitor, single point] | – |
| N#Cc1ccc(C(=O)Nc2nnc(-c3ccccn3)o2)cc1 | inconclusive: 28.2 µM [inhibitor, single point] | – |
| COc1ccccc1NC(=O)CSc1nncs1 | inconclusive: 17.8 µM [inhibitor, full curve, poor fit] | – |
| COc1ccc2nc3cc(Cl)ccc3c(Nc3ccc(O)c(CN4CCN(C)CC4)c3)c2c1 | active: 17.8 µM | – |
| CC(=O)c1cccc(NC(=O)c2cccc(NC(=O)c3ccco3)c2)c1 | inconclusive: 50.1 µM [inhibitor, partial curve] | – |
| O=[N+]([O-])c1ccc(Cl)c(S(=O)(=O)/N=C(/Nc2cccnc2)c2ccccc2)c1 | inconclusive: 14.1 µM [inhibitor, full curve, poor fit] | – |
| Cc1ccc(C(=O)CSC2=C(C#N)C(c3ccco3)CC(=O)N2)c(C)c1 (stereo unspecified) | inconclusive: 44.7 µM [inhibitor, partial curve] | – |
| COc1ccc(NS(=O)(=O)c2ccc(NC(=S)NC(=O)/C=C/c3ccc(C)cc3)cc2)nn1 | inconclusive: 10 µM [inhibitor, partial curve] | – |
| O=C(CCN1CCCC1)c1cccs1 | inconclusive: 20 µM [inhibitor, full curve] | – |

| SMILES | Potency | activity change, negative = inhibition |
| --- | --- | --- |
| COc1ccc(NC(=O)CSc2ccc3nnc(-c4ccccn4)n3n2)cc1 | inconclusive: 79.4 µM [inhibitor, single point] | – |
| CC1CCc2c(sc(NC(=S)NC(=O)c3ccccc3)c2C#N)C1 (stereo unspecified) | inactive | – |
| Cc1cc(C)c(OCC(=O)N/N=C/c2ccc3c(c2)OCO3)c(C)c1 | inactive | – |
| COc1ccc(C(=O)Nc2ccnn2C2CCN(CC3CC=CCC3)CC2)cc1 (stereo unspecified) | inconclusive: 89.1 µM [inhibitor, single point] | – |
| CCC1CCCCN1C(=S)Nc1ccc(S(=O)(=O)Nc2ncccn2)cc1 (stereo unspecified) | inconclusive: 100 µM [inhibitor, single point] | – |
| NC(=S)c1cc2ccc(O)cc2oc1=O | inconclusive: 100 µM [inhibitor, partial curve, poor fit] | – |
| COc1ccc(NS(=O)(=O)c2cccc(C(=O)NNC(=O)c3ccccc3O)c2)cc1 | inconclusive: 70.8 µM [inhibitor, single point] | – |
| Cc1nc(-[n+]2nc(-c3ccncc3)nn2-c2ccccc2)sc1C | inconclusive: 44.7 µM [inhibitor, partial curve] | – |
| S=C(NCc1ccco1)Nc1cc(Cl)c(Cl)cc1Cl | inconclusive: 22.4 µM [inhibitor, single point] | – |
| Cc1nnc(SCC(=O)NCc2ccccc2Cl)[nH]c1=O | inactive | – |
| CCOC(=O)c1[nH]c(C)c(C(=O)OCC(=O)Nc2sc3c(c2C#N)CCCCC3)c1C | inactive | – |
| COc1ccc(-[n+]2c(C)cc(/C=C3\Sc4ccccc4N3C)cc2C)cc1 | inconclusive: 31.6 µM [inhibitor, single point] | – |
| COc1ccc2oc(C(=O)NCCN3CCOCC3)c(C)c2c1OC | inconclusive: 89.1 µM [inhibitor, single point] | – |
| OC(c1ccccc1)c1nc(-c2cc(F)cc(F)c2)cs1 (stereo unspecified) | inactive | – |
| Cc1cccc(C(=O)Oc2ccc(/C=N/NC(=O)c3cc(O)cc(O)c3)cc2)c1 | active: 35.5 µM | – |
| Cc1cc(C(=O)Nc2c[nH]c(=O)[nH]c2=O)ccc1[N+](=O)[O-] | inconclusive: 39.8 µM [inhibitor, single point] | – |
| Cn1c(N)c(C(=O)COC(=O)c2cc(-c3ccccc3)nc3ccccc23)c(=O)n(Cc2ccccc2)c1=O | inactive | – |
| CC1CCN(c2ccc3c(c2)S(=O)(=O)c2cccc(C(=O)NCc4ccc(F)cc4)c2C3=O)CC1 | inactive | – |
| Cc1noc(NS(=O)(=O)c2ccc(NC(=O)/C=C/c3ccccc3)cc2)c1C | inconclusive: 35.5 µM [inhibitor, full curve, poor fit] | – |
| CC(=O)Oc1cccc(C(=O)Nc2ccc(NC(=O)c3cccs3)cc2)c1 | inconclusive: 17.8 µM [inhibitor, single point] | – |
| Nc1nc(-c2cccc(F)c2)cs1 | inactive | – |
| O=C(c1nnsc1S(=O)c1ccc(Cl)cc1)N1CCOCC1 (stereo unspecified) | active: 25.1 µM | – |
| O=C(COc1ccc(Br)cc1Br)NC(=S)Nc1cccc(CO)c1 | inactive | – |
| O=S(=O)(NCC(O)COCc1ccco1)c1cccs1 (stereo unspecified) | inconclusive: 50.1 µM [inhibitor, partial curve] | – |

| SMILES | Potency | activity change, negative = inhibition |
| --- | --- | --- |
| CN(C)c1ccccc1-c1cc(NC=O)c2ncc(-c3cccc(C(F)(F)F)c3)n2c1 | inactive | – |
| O=S(=O)(c1ccc(Br)cc1)c1nc(-c2ccccc2)oc1N1CCOCC1 | inconclusive: 70.8 µM [inhibitor, single point] | – |
| Nc1cccc2c1C(=O)N(C(=O)/C=C/c1cccc(F)c1)C2=O | – | inactive: -22.1% [at 11.6 µM] |
| COc1cc(/C=C2\SC(=S)N(CC(=O)NC3=NCCS3)C2=O)cc(OC)c1OC | inconclusive: 39.8 µM [inhibitor, single point] | – |
| CC(=C/C(=O)O)/C=C/c1ccc(Cl)o1 | inconclusive: 16.8 µM [inhibitor, partial curve] | – |
| CCc1ccc(OCc2nnc(-c3ccccc3Br)o2)cc1 | inactive | – |
| COC(=O)c1cc(NC(=O)c2ccccc2)c(=O)oc1C/C=N\OCc1ccc(Cl)cc1Cl | inconclusive: 89.1 µM [inhibitor, partial curve] | – |
| C=CCOC(=O)c1cc(-c2ccc(/C=C3\C(=O)NC(=O)C(C#N)=C3C)o2)ccc1Cl | active: 10.6 µM | – |
| CC(=O)c1cccc(N(C(=O)CS(=O)CC(=O)Nc2ccc(F)cc2)C(C(=O)NC2CCCCC2)c2ccc(C)o2)c1 (stereo unspecified) | inconclusive: 35.5 µM [inhibitor, single point] | – |
| CC(=O)c1cc(C(=O)N2CCCC(C(=O)c3ccc(Cl)cc3)C2)cs1 (stereo unspecified) | inconclusive: 79.4 µM [inhibitor, single point] | – |
| CC1=NOC(=O)/C1=C\c1ccc(-c2ccc(Br)cc2C(=O)O)o1 | active: 50.1 µM | – |
| CC(NC(=O)CC(c1ccccc1)c1cc(Cl)ccc1O)c1ccccc1 (stereo unspecified) | inconclusive: 12.6 µM [inhibitor, partial curve] | – |
| N#Cc1sc(NCc2cccc(Cl)c2)nc1Cl | inactive | – |
| Oc1ccc(Cl)cc1-c1cc(-c2ccco2)[nH]n1 | inconclusive: 56.2 µM [inhibitor, partial curve, poor fit] | – |
| Oc1ccc(/C=N/Nc2ccnc3cc(Cl)ccc23)c(O)c1O | inconclusive: 44.7 µM [inhibitor, partial curve] | – |
| CCCn1nc(C(=O)Nc2ccc(S(=O)(=O)Nc3ncccn3)cc2)c2ccccc2c1=O | inactive | – |
| O=C(NC1CCCC1)C(c1ccccn1)N(C(=O)c1csnn1)C1CC1 (stereo unspecified) | inactive | – |
| O=[N+]([O-])c1ccc2c(c1)N([O-])C1(CCCCC1)[N+]2=O | inconclusive: 56.2 µM [inhibitor, partial curve] | – |
| Cc1cccc(NC(=O)Cn2c(O)c(N=NC(=O)c3ccccc3O)c3ccccc32)c1 | inconclusive: 44.7 µM [inhibitor, partial curve] | – |
| O=C(CSCc1ccccc1)Nc1cccc(F)c1 | inconclusive: 89.1 µM [inhibitor, single point] | – |
| O=C(CCC(=O)c1cccs1)NCc1ccccc1Cl | inconclusive: 35.5 µM [inhibitor, full curve] | – |
| O=C(COc1ccc(Br)cc1)N/N=C1/SCC(=O)N1Cc1ccccc1 | inconclusive: 25.1 µM [inhibitor, single point] | – |
| NS(=O)(=O)c1cccc(NC(=O)CCSc2ccc(Cl)cc2)c1 | inconclusive: 56.2 µM [inhibitor, partial curve] | – |

Already shown: 5 of the compounds above.

| SMILES | Potency | activity change, negative = inhibition |
| --- | --- | --- |
| N#Cc1sc(NCc2cccc(Cl)c2)nc1Cl | inactive | – |
| Oc1ccc(Cl)cc1-c1cc(-c2ccco2)[nH]n1 | inconclusive: 56.2 µM [inhibitor, partial curve, poor fit] | – |
| Oc1ccc(/C=N/Nc2ccnc3cc(Cl)ccc23)c(O)c1O | inconclusive: 44.7 µM [inhibitor, partial curve] | – |
| CCCn1nc(C(=O)Nc2ccc(S(=O)(=O)Nc3ncccn3)cc2)c2ccccc2c1=O | inactive | – |
| O=C(NC1CCCC1)C(c1ccccn1)N(C(=O)c1csnn1)C1CC1 (stereo unspecified) | inactive | – |
